# Measured values as given in PubChem BioAssay AID493014 (National Center for Advancing Translational Sciences (NCATS), 2011).
# Hit rate of the full screen: of about 340,000 compounds, about 170 (0.05%) were called active. This list was built around the results that the source calls inconclusive (neither active nor inactive); the mix of calls is not that of the screen. The call rests on the fitted dose curve; in most records, active means well fitted inhibition curve with a large enough effect in the signal ratio, with a control signal flat (not every such curve was filed as active); inconclusive means small, poorly fitted or top-dose-only effect, or effect the other way, or a change in a side signal; inactive means flat fitted curve, though single readings scatter; the % refers to the signal ratio. Where the call is inconclusive, the potency comes from a doubtful curve fit.
# Assay: qHTS Assay to Find Inhibitors of Chronic Active B-Cell Receptor Signaling;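 on activity change, negative = inhibition: plate controls were basal doxycycline-induced cells for no effect and cells given 10 µM MG132 for full effect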
# Conditions: ABC-DLBCL IkBa-CBG/CBR reporter, luminescence ratio (green luciferase fused to IkBa over red control in TMD8 lymphoma cells), 4 h; activity change, negative = inhibition: at 46.1 µM (top of the series)
# Method in brief: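 Cell line TMD8 (human ABC DLBCL), stably expressing tet-inducible CBG68-IkBa fusion and CBR; IMDM/0.5% FBS; cpd up to 46 uM; dox induction, 4 h, 37C/5% CO2; dual luminescence; green/red ratio; MG132 control.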
# Potency means the concentration at half of the fitted maximal effect.
SMILES,"activity change, negative = inhibition",Potency
CN(C(=O)Oc1ccc(C(=O)c2ccc(Cl)cc2)cc1)c1ccccc1,inactive,
O=C1NC(=O)C(=Cc2ccc(N3CCOCC3)cc2)C(=O)N1,inactive,
O=c1c2ccccc2nc(/C=C/c2ccc3c(c2)OCO3)n1-c1ccccc1,,"inconclusive: 1.78 µM [falling, full curve, poor fit]"
Cc1ccsc1C(=O)C1CCCN(Cc2cccc(OCCO)c2)C1 (configuration not stated),inconclusive: 3.14%,
Cn1c(O)c(/C=N/NC(=O)c2ccncc2)c(=O)[nH]c1=S,,"inconclusive: 35.5 µM [rising, single point]"
CC(C)CN1CCN(Cc2ccc(F)cc2Cl)CC1CCO (configuration not stated),inactive,
Nc1nonc1C(=O)N/N=C/c1ccc([N+](=O)[O-])o1,inconclusive: 5.98%,
CCOC(=O)c1[nH]c2ccc(OC)cc2c1C(SCC(=O)O)c1ccc(C(F)(F)F)cc1 (configuration not stated),inconclusive: -12.9%,
CC(=O)c1ccc2c(c1)C1C(Cl)C(Sc3ccccc3[N+](=O)[O-])CC1C(c1ccccc1)N2 (configuration not stated),,"inconclusive: 20.6 µM [falling, single point]"
Cc1c(O)ccc(C(=O)CN2CC(C)OC(C)C2)c1O (configuration not stated),inactive,
COP(=O)(OC)C(NC(=O)c1ccc(C)cc1)C(Cl)(Cl)Cl (configuration not stated),inconclusive: 24.3%,
[O-]c1ccccc1-[n+]1c(-c2ccccc2)cc(-c2ccccc2)cc1-c1ccccc1,inconclusive: -16.6%,
CCN1C[C@]2(C)CC[C@H](O)[C@]34C1[C@H](C[C@H]23)[C@@]1(O)C[C@H](OC)[C@H]2C[C@@H]4[C@@H]1C2O (some centres not stated),inactive,
Brc1ccc(-[n+]2c(-c3ccccc3)cc(-c3ccccc3)cc2-c2ccccc2)cc1,inconclusive: -8.08%,
CC1=CC2/C=C(\C)CCC(O)C(O)/C=C/C(=O)C23C(=O)NC(CC(C)C)C3C1C (configuration not stated),,"inconclusive: 12.6 µM [rising, single point]"
O=c1[nH]c(=O)n(-c2ccccc2)c(O)c1/C=C1/C(c2ccccc2)=Nc2ccccc21,,"inconclusive: 16.4 µM [falling, partial curve, poor fit]"
COCCN1C(=O)NC(=O)/C(=C\c2ccc(F)cc2)C1=O,inconclusive: 9.49%,
COc1nn(-c2ccccc2)c(=O)c(Cl)c1Cl,inconclusive: 21.3%,
CC1=Nc2ccccc2/C1=C/c1c(O)[nH]c(=O)[nH]c1=O,inactive,
CCOc1cc2c(cc1OCC)-n1cccc1C(c1ccc(OC)c(O)c1)NC2 (configuration not stated),,"inconclusive: 12.6 µM [falling, single point]"
O=C1/C(=C/c2ccc([N+](=O)[O-])cc2)N2CCC1CC2,inconclusive: -13.4%,
CC(=NC(C)c1ccccc1)c1c(O)[nH]c(=O)[nH]c1=O (configuration not stated),,"inconclusive: 35.5 µM [falling, partial curve, poor fit]"
Cc1cc(C)nc(-n2c(C)nc3cc(Cl)ccc3c2=O)c1,inconclusive: -2.48%,
COc1ccc(O)c(C(=O)c2cnn(-c3ccccn3)c2)c1,inconclusive: -2.32%,
S=C(N/N=C/c1ccc2ncccc2c1)Nc1cccnc1,,"inconclusive: 17.8 µM [falling, single point]"
CN(C)C1(CNC(=O)c2cc(S(=O)(=O)N3CCOCC3)c(Cl)cc2Cl)CCCCC1,inconclusive: -0.761%,

SMILES,"activity change, negative = inhibition",Potency
CCOC(=O)Cn1c(=O)oc2cc(S(=O)(=O)N3CCN(C(=O)c4ccco4)CC3)ccc21,inconclusive: 5.18%,
Cc1ccc(-n2c(O)c(C=NCCN3CCOCC3)c(=O)[nH]c2=O)cc1,inconclusive: 24.6%,
O=[N+]([O-])c1ccc(Cl)c([N+](=O)[O-])c1,,"inconclusive: 29.1 µM [falling, single point]"
O=C(COc1ccc2c(c1)OCO2)Nc1cccc(F)c1,,"inconclusive: 25.1 µM [falling, single point]"
CCOC(=O)[C@]1(C#N)[C@@H]2C=CC(C(C)=O)=CN2[C@@H](C(N)=O)[C@@H]1c1ccsc1,inconclusive: -25.3%,
CCCNC(=O)N1[C@H]2CC[C@@H]1C(C(=O)OC)=C(c1cccc(C#N)c1)C2,inactive,
C=C1CC[C@@]2(O)[C@H]3Cc4ccc(O)c5c4[C@@]2(CCN3CC2CC2)[C@H]1O5,inconclusive: -39.8%,
Cc1nc2ccccc2c(=O)n1-c1ccc(Br)cc1[N+](=O)[O-],inconclusive: -3.52%,
COC(=O)C1=C(c2ccc(F)cc2OCc2ccccc2)C[C@@H]2CC[C@H]1N2C(=O)NCc1ccco1,inconclusive: -3%,
COc1cc(/C=N/NP(=S)(c2ccccc2)c2ccccc2)ccc1O,,"inconclusive: 29.1 µM [falling, single point]"
C[C@H]1CCC[C@@H](O)CCC/C=C/c2cc(O)cc(O)c2C(=O)O1,,"inconclusive: 12.6 µM [cytotoxic, partial curve]"
COCCOC(=O)C1=C(N)Oc2c(c(=O)oc3ccccc23)C1c1ccncc1 (configuration not stated),,"inconclusive: 1.84 µM [falling, partial curve, poor fit]"
COC(=O)C1=C(c2ccc3ccccc3c2)C[C@@H]2CC[C@H]1N2C(=O)NCc1ccc(F)cc1,inconclusive: -5.05%,
C=CC1CN2CCC1CC2[C@@H](OC(=O)c1ccc(OC)cc1)c1ccnc2ccccc12 (some centres not stated),,"inconclusive: 5.62 µM [falling, partial curve, poor fit]"
Cc1nc2cc(-c3ccccc3)sc2c(=O)n1N,,"inconclusive: 12.6 µM [falling, partial curve]"
CC(=O)c1cccc(OCC(O)CN2CC=C(c3ccccc3)CC2)c1 (configuration not stated),inactive,
Cc1ccccc1-n1c(O)c(C=Nc2ccc(N(C)C)cc2)c(=O)[nH]c1=O,inactive,
Cc1cc(=O)oc2cc(OCC(=O)N3CCN(Cc4ccccc4)CC3)ccc12,inconclusive: 1.38%,
C[C@]12CCC3C(CCC4=C/C(=N/OCC(=O)NC(CCC(=O)O)C(=O)O)CC[C@@]43C)C1CCC2O (some centres not stated),inconclusive: -0.396%,
O=C1C2CCCN2C(c2ccc(Cl)c(Cl)c2)N1c1ccccn1 (configuration not stated),,"inconclusive: 7.31 µM [falling, single point]"
CN1CC=C2C(C#N)=C(N)C(C#N)(C#N)C(c3ccncc3)C2C1 (configuration not stated),inconclusive: 4.32%,
C#CCN1C(=O)C2(C(C#N)=C(N)OC(C)=C2C(=O)OCc2ccccc2)c2ccccc21 (configuration not stated),inconclusive: -16.1%,
C=C(Cl)CSC(=S)N(CC)CC,inactive,
c1ccc(-c2[nH]c(-c3ccccc3)[n+](CC3CO3)c2-c2ccccc2)cc1 (configuration not stated),inconclusive: 5.33%,
CC(c1ccc(F)cc1)n1cc(C(=O)NCc2ccc3c(c2)OCO3)nn1 (configuration not stated),inactive,
CCOC(C(=O)OCC(O)CN(CC)CC)(c1ccccc1)c1ccccc1 (configuration not stated),inconclusive: -3.82%,

SMILES,"activity change, negative = inhibition",Potency
Cc1nc2cc(C(F)(F)F)ccc2n1C1CCN(Cc2nnnn2Cc2ccc3c(c2)OCO3)CC1,,"inconclusive: 29.1 µM [rising, single point]"
CCOP(=O)(OCC)/C(=N/OC(=O)c1ccc(OC)cc1)C(N)=O,inconclusive: 20.4%,
CSCCC(NC(=O)CCC(=O)OC1CC[C@H]2[C@@H]3CC[C@H]4CC(=O)CC[C@]4(C)[C@H]3CC[C@]12C)C(=O)O (some centres not stated),inconclusive: -6.43%,
CCCCCCC(C)(C)c1ccc([C@@H]2C[C@H](O)CC[C@H]2CCCO)c(O)c1,inconclusive: 1.66%,
CCc1ccc(CN2CCN(Cc3cc(Br)ccc3O)CC2)cc1,inconclusive: -1.71%,
COc1cc(C2C(C#N)=C(N)OC3=C2C(=O)CC(C)(C)C3)ccc1OC(=O)N1CCOCC1 (configuration not stated),inconclusive: 3.94%,
CC1CCCN(c2ccc(C(=O)N3CCC4(CC3)OCCO4)cc2[N+](=O)[O-])C1 (configuration not stated),inactive,
Clc1ccccc1Nc1ncnc(-n2cccc2)n1,inconclusive: -11.2%,
CC1CN(C)C(C)(C)CC1(O)c1ccccc1 (configuration not stated),inconclusive: -3.9%,
COc1cc(C=C2C(=O)NC(=O)NC2=O)cc(OC)c1OC,inconclusive: -2.86%,
O=C(NC12CC3CC(CC(C3)C1)C2)OC1CN2CCC1CC2 (configuration not stated),inconclusive: -14.1%,
COc1cc2c(C(=O)O)c(C)n(C)c2cc1Br,inconclusive: 1.35%,
COC(=O)C1=C(c2ccc(-c3ccccc3)c(F)c2)C[C@@H]2CC[C@H]1N2C(=O)NCc1ccco1,inconclusive: -2.6%,
CCOc1ccccc1N=C1SCCCN1C,inactive,
O=C(COC(=O)Cc1ccccc1)Nc1ncc(Cl)cc1Cl,inactive,
O=C(O)c1cn(Cc2ccccc2)nc1-c1ccccc1,inactive,
CC(C)(O)/C=C/C(=O)[C@](C)(O)C1[C@H](O)C[C@@]2(C)C3CC=C4C(C[C@H](O)[C@@H](O)C4(C)C)[C@]3(C)C(=O)C[C@]12C (some centres not stated),,"inconclusive: 20.6 µM [falling, partial curve, poor fit]"
COc1ccccc1NCC(=O)c1ccc(Cl)cc1,inconclusive: -0.127%,
CNC(=O)Oc1cccc2ccccc12,inconclusive: -19.2%,
c1cnc2c(c1)ccc1ncccc12,inconclusive: 5.26%,
COc1cccc(CC(=O)Nc2nc(-c3ccc(OC)c(OC)c3)cs2)c1,inconclusive: -22.9%,
O=C1Nc2ccccc2/C1=C/c1cnc[nH]1,inconclusive: 27%,
Cc1ccc(CN2CCSc3ccc(C(=O)N4CCC5(CC4)OCCO5)cc32)cc1,inconclusive: 7.18%,
CCCCn1c(O)c(C(C)=Nc2cccc(C(=O)O)c2)c(=O)[nH]c1=O,inconclusive: 4.65%,
Cc1cc(C)c(C(=O)CN2CCOCC2)c(C)c1,,"inconclusive: 29.1 µM [falling, single point]"

# Three structures from above, ordered by number of heavy atoms, ascending.
SMILES,"activity change, negative = inhibition",Potency
Clc1ccccc1Nc1ncnc(-n2cccc2)n1,inconclusive: -11.2%,
CCOP(=O)(OCC)/C(=N/OC(=O)c1ccc(OC)cc1)C(N)=O,inconclusive: 20.4%,
COC(=O)C1=C(c2ccc(-c3ccccc3)c(F)c2)C[C@@H]2CC[C@H]1N2C(=O)NCc1ccco1,inconclusive: -2.6%,
